Construct, isoform or probe ends are uncertain for at least one entry. For part of these data: A weaker result is weaker than the reference pair of the same experiment. For part of these data: At least one verdict rests on a figure or table, not on a statement of the authors.
Legend:
eIF4G-MC = experiment: fluorescence anisotropy; details: affinity comparable to eIF4H, Kd in figure only; 20 mM HEPES/KOH pH 7.5, 100 mM KCl, 1 mM TCEP, 1% DMSO, 2 mM AMPPNP/MgCl2, 25 C, 60 min; recombinant protein; residues 674-1600; protein details: N-terminal 6xHis-SUMO, cleaved; label: FAM or 5' Dy780
eIF4H = eIF4H (UniProt Q15056); experiment: fluorescence anisotropy; details: affinity comparable to eIF4G-MC, Kd in figure only; 20 mM HEPES/KOH pH 7.5, 100 mM KCl, 1 mM TCEP, 1% DMSO, 2 mM AMPPNP/MgCl2, 25 C, 60 min; recombinant …; protein details: N-terminal 6xHis-SUMO, cleaved; label: FAM or 5' Dy780
eIF4A1 (human) = eIF4A1 (human) (UniProt P60842); experiment: EMSA; details: AMPPNP/MgCl2, 50 uM hippuristanol; 20 mM HEPES/KOH pH 7.5, 100 mM KCl, 1 mM TCEP, 1% DMSO, 2 mM AMPPNP/MgCl2, 25 C, 60 min; EMSA gels 6-7% acrylamide-TB, 0.5x TB; recombinant protein; protein details: N-terminal 6xHis-SUMO, cleaved; label: FAM or 5' Dy780

Amino acid sequences for entries named in this document (tags omitted). A change or cut given only in a name is not applied to a line headed by its entry.
UniProt P60842, whole entry: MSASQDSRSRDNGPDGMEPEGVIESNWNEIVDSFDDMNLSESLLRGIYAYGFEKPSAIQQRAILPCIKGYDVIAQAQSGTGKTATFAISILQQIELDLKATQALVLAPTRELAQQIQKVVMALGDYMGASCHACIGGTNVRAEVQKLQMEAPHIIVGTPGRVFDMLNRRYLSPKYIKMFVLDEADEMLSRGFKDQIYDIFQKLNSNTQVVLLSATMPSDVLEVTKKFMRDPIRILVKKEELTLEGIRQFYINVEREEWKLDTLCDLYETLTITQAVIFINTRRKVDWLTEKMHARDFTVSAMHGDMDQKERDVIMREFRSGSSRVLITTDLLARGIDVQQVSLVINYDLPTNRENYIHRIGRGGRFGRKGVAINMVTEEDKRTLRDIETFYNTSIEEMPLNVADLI

Row | Sequence | binding result (eIF4G-MC) | binding result (eIF4H) | binding result (eIF4A1 (human))
1 | AGAGAGAGAGAGAGAGAGAG [AG-RNA (20 nt)] | binds | binds | 
2 | CAACAACAACAACAACAACA [CAA-RNA (20 nt)] |  |  | binds more weakly

From publication PMC9976904
